Here are results for one molecule from article PMC8408929, “Influence of osmolality on gastrointestinal fluid volume and drug absorption: potential impact on oral salt supplementation” (Journal of Pharmaceutical Health Care and Sciences, 2021).

The subject of data set [1] is rat intestine (jejunum, ileum and colon). The note with it: male, Wistar, in vivo, 30 min, 10 μM. As for the experimental part:
The in situ rat intestinal closed loop method was carried out as described previously. Male Wistar rats (7–8 weeks old; 250 ± 20 g body weight) were fasted overnight and anesthetized by intraperitoneal injection of a triple anesthetic combination (medetomidine, midazolam and butorphanol). The abdominal cavity was opened and an intestinal loop (jejunum, 10 cm; ileum, 10 cm; colon, 7 cm) was made by cannulation into both ends of the jejunum, ileum and colon with silicone tubing (i.d., 3 mm). The intestinal contents were washed out through the cannulas with saline. […] One mL of test compound solution (10 μM) was introduced into the intestinal loop and both ends of the loop were ligated. […] The volume of luminal water (mL) in each segment of intestine was calculated using the following equation: 1 Vwater=Xout/Cout where Vwater (mL) is the water volume in each segment of intestine, Cout is the luminal concentration of test compound (μM), and Xout is the amount of test compound (μmol). The fraction absorbed of test compound was calculated from the remaining amount of test compound in each intestinal loop. Final results were normalized to the surface area calculated from the radius and length of each segment of intestine. […]

The nature of another data set: in vivo. The note with it: male, Wistar, rat, po, 1 mg/kg; for AUC(0-inf) / AUC(0-t) / Cmax / Tmax: plasma; for AUC(0-inf): AUC0-∞; for AUC(0-t): AUC0–7, rat. From the text:
An Agilent Eclitse plus (C18, 50 × 2.1 mm, 5 μm) was used as the analytical column. […] Analyst software version 1.4.2 (AB SCIEX) was used for data manipulation.

For data set [2] the following is noted: oral ingestion of apple juice; cited from earlier work.
The mark [3] stands for this setting: oral 1 mg/kg (0.25 mg/mL) in hyperosmotic solution (10% NaCl).
[4] abbreviates: oral 1 mg/kg (0.25 mg/mL) in purified water.

As usually defined, the AUC(0-inf) is total exposure, with the tail of the curve extrapolated. Higher therefore signals more exposure. What is called AUC(0-t) is the area under the concentration-time curve up to a stated or last time point. The term Cmax denotes the peak of the concentration-time curve. The Tmax is the time at which the peak concentration occurs.

As to `CC(C)NCC(O)COc1ccc(CC(N)=O)cc1` (centres unmarked) [atenolol], the fraction absorbed in data set [1] is 30.8% ± 1.2. Further, in the data set “in vivo” (in vivo), the “AUC0–7 with hyperosmotic solution, decreased to % of purified water” value is given as 42.0%. In addition, in “in vivo” (setting [3]), the AUC(0-inf) came out at 92.9 ± 27.6 ng·h/mL, the AUC(0-t) was determined as 89 ± 25.4 ng·h/mL, the Cmax was found to be 37.6 ± 9.2 ng/mL and the Tmax amounted to 1.92 ± 0.08 h. Moreover, in “in vivo” (setting [4]), the AUC(0-inf) was determined as 231 ± 11 ng·h/mL, the AUC(0-t) was found to be 212 ± 11 ng·h/mL, the highest concentration (Cmax) turned out to be 68.4 ± 4.7 ng/mL and the Tmax came out at 2.3 ± 0.3 h. Besides, the “absorption of atenolol coadministered with apple juice” value in data set [2] is listed as “decreased absorption”.
